The list shows a part of the results.
Columns and labels:
Assay in all cases: log2 fold change, soluble protein after heating vs DMSO (PISA); higher = thermal stabilisation; K562 cells, 10 uM, 30 min; active = over 0.2 and 3.5 SD of the protein, either way, in both replicates (recomputed)
[1] = compound: CC1=C(C=C(C=C1)NC(=O)C2=CC(=CC=C2)C(C)(C)C#N)NC3=CC4=C(C=C3)N=CN(C4=O)C
Procedure, shortened: (§1)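 Quantification of soluble protein used TMTpro 16plex LC-MS/MS, with channel sums equalised. Samples were the supernatant after 21,000xg for 90 min of pooled aliquots from K562 cells (2×10^6 cells/mL) treated with 10 μM compound for 30 min, heated for 3 min over 48°C-58°C, and extracted in PBS with 0.5% NP-40 at 4°C. Values, from duplicates, describe thermal stability against control samples on a log2 fold-change scale.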

Protein sequences, listed by entry. Tags and fused reporters are not part of them. Lines headed by an entry give the natural chain unless they say otherwise; changes in a name come on top.
UniProt Q96BD8: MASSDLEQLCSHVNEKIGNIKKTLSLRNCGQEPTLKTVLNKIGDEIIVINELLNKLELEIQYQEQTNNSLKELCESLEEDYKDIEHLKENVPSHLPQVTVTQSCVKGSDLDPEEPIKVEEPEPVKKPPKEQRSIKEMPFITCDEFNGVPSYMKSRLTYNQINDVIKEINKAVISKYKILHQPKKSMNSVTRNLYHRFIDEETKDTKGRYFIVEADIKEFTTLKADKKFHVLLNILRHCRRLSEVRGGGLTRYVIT
UniProt O43255: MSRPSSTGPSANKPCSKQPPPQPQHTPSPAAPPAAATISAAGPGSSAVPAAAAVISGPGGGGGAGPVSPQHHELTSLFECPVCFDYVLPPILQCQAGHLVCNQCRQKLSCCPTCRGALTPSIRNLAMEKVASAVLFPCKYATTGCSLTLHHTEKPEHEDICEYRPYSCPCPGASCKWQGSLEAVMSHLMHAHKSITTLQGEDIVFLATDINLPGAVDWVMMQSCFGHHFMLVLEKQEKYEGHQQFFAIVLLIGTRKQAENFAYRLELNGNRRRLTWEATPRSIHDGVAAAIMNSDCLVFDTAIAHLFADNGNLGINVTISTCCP
UniProt P84101: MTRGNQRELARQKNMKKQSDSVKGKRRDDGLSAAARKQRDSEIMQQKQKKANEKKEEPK
UniProt P60059: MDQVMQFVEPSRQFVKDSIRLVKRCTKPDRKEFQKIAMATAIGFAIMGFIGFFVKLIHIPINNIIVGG
UniProt P36952: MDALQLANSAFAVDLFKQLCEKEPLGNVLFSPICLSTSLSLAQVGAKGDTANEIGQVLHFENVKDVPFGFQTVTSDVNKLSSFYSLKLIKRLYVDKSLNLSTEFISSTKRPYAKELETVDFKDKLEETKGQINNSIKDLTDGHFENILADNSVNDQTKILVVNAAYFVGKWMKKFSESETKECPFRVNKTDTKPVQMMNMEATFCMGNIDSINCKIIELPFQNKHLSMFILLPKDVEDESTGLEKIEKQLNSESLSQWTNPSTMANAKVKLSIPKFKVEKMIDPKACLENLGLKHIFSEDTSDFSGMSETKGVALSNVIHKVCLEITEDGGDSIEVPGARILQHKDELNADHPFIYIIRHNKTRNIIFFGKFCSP
UniProt Q9HAT2: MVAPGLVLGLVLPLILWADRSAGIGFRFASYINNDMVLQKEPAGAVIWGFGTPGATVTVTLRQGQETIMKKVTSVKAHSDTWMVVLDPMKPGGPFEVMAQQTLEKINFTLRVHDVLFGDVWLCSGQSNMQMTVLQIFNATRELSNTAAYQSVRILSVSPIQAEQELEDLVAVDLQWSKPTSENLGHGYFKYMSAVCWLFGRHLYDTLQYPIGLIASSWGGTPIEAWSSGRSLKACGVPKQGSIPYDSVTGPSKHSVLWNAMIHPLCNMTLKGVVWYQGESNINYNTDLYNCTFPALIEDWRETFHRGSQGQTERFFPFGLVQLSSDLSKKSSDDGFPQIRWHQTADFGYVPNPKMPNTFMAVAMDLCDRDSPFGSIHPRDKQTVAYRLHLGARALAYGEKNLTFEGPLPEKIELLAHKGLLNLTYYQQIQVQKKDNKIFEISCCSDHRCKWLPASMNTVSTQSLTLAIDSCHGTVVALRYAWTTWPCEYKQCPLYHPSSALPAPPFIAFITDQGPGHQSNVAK
UniProt P49908, whole entry, looked up: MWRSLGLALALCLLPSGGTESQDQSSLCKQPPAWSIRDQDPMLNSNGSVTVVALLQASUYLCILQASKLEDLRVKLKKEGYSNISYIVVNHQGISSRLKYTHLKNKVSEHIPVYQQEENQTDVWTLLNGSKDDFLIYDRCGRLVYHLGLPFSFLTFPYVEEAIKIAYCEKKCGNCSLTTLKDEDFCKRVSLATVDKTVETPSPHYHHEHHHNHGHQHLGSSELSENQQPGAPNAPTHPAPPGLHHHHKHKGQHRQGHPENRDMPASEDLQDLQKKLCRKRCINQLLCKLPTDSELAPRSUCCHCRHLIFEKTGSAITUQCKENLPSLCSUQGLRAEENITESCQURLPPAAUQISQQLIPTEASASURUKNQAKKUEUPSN
UniProt Q9P0V9: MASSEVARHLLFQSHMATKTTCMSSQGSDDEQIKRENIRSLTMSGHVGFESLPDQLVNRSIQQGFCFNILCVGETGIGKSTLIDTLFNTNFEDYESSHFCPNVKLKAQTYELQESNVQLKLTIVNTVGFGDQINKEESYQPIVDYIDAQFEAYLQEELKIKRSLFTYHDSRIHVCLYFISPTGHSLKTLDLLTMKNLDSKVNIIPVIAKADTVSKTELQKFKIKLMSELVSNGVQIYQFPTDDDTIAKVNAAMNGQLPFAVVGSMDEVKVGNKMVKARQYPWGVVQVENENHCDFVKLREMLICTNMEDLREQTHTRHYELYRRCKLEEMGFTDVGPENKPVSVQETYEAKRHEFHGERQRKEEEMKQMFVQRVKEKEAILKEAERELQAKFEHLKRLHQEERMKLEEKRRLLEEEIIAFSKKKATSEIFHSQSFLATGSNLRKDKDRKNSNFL
UniProt Q86XK3: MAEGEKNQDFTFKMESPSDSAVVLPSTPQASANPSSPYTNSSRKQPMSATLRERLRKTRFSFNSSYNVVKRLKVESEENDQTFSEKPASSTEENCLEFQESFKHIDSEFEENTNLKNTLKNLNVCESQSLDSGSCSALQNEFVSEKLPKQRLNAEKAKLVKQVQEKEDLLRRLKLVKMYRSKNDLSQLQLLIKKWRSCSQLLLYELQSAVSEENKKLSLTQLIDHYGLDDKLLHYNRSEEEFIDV
UniProt Q8NC51: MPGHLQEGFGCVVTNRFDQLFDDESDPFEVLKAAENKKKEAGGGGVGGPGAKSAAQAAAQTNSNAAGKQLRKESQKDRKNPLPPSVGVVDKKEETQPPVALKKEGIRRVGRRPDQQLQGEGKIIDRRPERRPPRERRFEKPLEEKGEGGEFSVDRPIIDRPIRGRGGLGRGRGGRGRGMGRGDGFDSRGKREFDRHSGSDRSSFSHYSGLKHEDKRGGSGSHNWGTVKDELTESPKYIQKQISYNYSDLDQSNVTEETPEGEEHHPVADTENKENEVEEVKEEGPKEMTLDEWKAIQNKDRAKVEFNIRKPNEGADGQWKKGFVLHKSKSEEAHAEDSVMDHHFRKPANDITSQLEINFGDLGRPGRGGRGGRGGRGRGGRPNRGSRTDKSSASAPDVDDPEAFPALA

[2] = compound: CC1=C(C=C(C=C1)NC(=O)C2=CC(=CC=C2)N(C)C)NC(=O)C3=CC=C(C=C3)O
Procedure, shortened: as §1

[3] = compound: CC1=CC=C(C=C1)SC2=C3C=C(SC3=CN=C2)C(=O)N
Procedure, shortened: as §1

[4] = compound: CC1=NC(=CC=C1)C2=C(N=C(N2)C(C)(C)C)C3=CC4=NC=CN=C4C=C3
Procedure, shortened: as §1

Nexturastat A = compound: CCCCN(Cc1ccc(C(=O)NO)cc1)C(=O)Nc1ccccc1 [Nexturastat A]
Procedure, shortened: as §1

vemurafenib = compound: CCCS(=O)(=O)Nc1ccc(F)c(C(=O)c2c[nH]c3ncc(-c4ccc(Cl)cc4)cc23)c1F [vemurafenib]
Procedure, shortened: as §1

[5] = compound: CCCS(=O)(=O)Nc1ccc(F)c(C(=O)c2c[nH]c3ncc(Cl)cc23)c1F
Procedure, shortened: as §1

[6] = compound: CCCc1cc(C)[nH]c(=O)c1CNC(=O)c1cc(-c2ccnc(N3CCN(C)CC3)c2)cc2c1cnn2C(C)C
Procedure, shortened: as §1

[7] = compound: CC[C@@H]1C(=O)N(C)c2cnc(Nc3ccc(C(=O)NC4CCN(C)CC4)cc3OC)nc2N1C1CCCC1
Procedure, shortened: as §1

volasertib = compound: CC[C@@H]1C(=O)N(C)c2cnc(Nc3ccc(C(=O)N[C@H]4CC[C@H](N5CCN(CC6CC6)CC5)CC4)cc3OC)nc2N1C(C)C [volasertib]
Procedure, shortened: as §1

[8] = compound: CC[C@H](C)N1C=C(C2=C(C=C(C=C21)C3=CN=C(C=C3)N4CCNCC4)C(=O)NCC5=C(C=C(NC5=O)C)C)C
Procedure, shortened: as §1

epoxomicin = compound: CC[C@H](C)[C@@H](C(=O)N[C@@H]([C@@H](C)O)C(=O)N[C@@H](CC(C)C)C(=O)[C@]1(CO1)C)NC(=O)[C@H]([C@@H](C)CC)N(C)C(=O)C [epoxomicin]
Procedure, shortened: as §1

[9] = compound: CCn1cc(-c2ccnc3[nH]c(-c4cccc(CN(C)C)c4)cc23)c(-c2ccc(NC(=O)N(C)C)cc2)n1
Procedure, shortened: as §1

[10] = compound: CN(C)CC(=O)Nc1ccc2[nH]c(=O)c3ccccc3c2c1
Procedure, shortened: as §1

[11] = compound: CN1C2=C(C3=C1C(=O)N(N=C3)CC4=CC(=CC=C4)N)SC(=C2)S(=O)C
Procedure, shortened: as §1

[12] = compound: CN1CCC(CNc2ccc3ncc(-c4cccc(OC(F)(F)F)c4)n3n2)CC1
Procedure, shortened: as §1

barasertib = compound: CCN(CCCOc1ccc2c(Nc3cc(CC(=O)Nc4cccc(F)c4)[nH]n3)ncnc2c1)CCOP(=O)(O)O [barasertib]
Procedure, shortened: as §1

rosiglitazone = compound: CN(CCOC1=CC=C(C=C1)C[C@H]2C(=O)NC(=O)S2)C3=CC=CC=N3 (racemic) [rosiglitazone]
Procedure, shortened: as §1

givinostat = compound: CCN(CC)Cc1ccc2cc(COC(=O)Nc3ccc(C(=O)NO)cc3)ccc2c1 [givinostat]
Procedure, shortened: as §1

[13] = compound: CCn1c(C(=O)N(C2CC2)C2CC2)cc2c3c(ncn3C)c(Nc3cc(C)n(C)n3)nc21
Procedure, shortened: as §1

Measured: log2 fold change

SKA1 (UniProt Q96BD8)
inactive: [1] 0.001 | [2] 0.094 | [3] -0.045 | [4] -0.068 | Nexturastat A 0.327 | vemurafenib 0.075 | [5] -0.061 | [6] 0.133 | [7] 0.054 | volasertib -0.036 | [8] -0.006 | epoxomicin -0.173 | [9] 0.012 | [10] -0.005 | [11] 0.324 | [12] 0.128

SIAH2 (UniProt O43255)
inactive: [2] 0.008 | [3] 0.003 | [4] -0.042 | vemurafenib -0.129 | [5] -0.017 | [6] -0.229 | barasertib -0.054 | [7] 0.011 | volasertib -0.097 | [8] 0.01 | [10] -0.061 | rosiglitazone 0.036

SHFL (UniProt Q9NUL5)
inactive: [1] 0.003 | [2] -0.02 | [3] 0.03 | Nexturastat A 0.151 | [5] 0.041 | [6] -0.015 | barasertib -0.045 | volasertib 0.045 | [8] -0.008 | epoxomicin -0.127 | [9] 0.192 | rosiglitazone 0.015 | [12] 0.242

SERF2 (UniProt P84101)
inactive: [1] -0.032 | [2] -0.005 | Nexturastat A 0.066 | vemurafenib -0.156 | [6] -0.027 | givinostat -0.012 | barasertib -0.02 | [7] -0.056 | [8] -0.079 | epoxomicin 0.12 | [13] -0.017 | [9] 0.075 | [10] 0.017 | rosiglitazone -0.065 | [11] -0.076 | [12] -0.13

SEC61G (UniProt P60059)
inactive: [1] 0.099 | [2] 0.106 | [4] 0.058 | Nexturastat A -0.137 | [6] -0.298 | givinostat -0.016 | barasertib -0.091 | [7] 0.2 | [8] -0.154 | epoxomicin 0.115 | [13] 0.002 | rosiglitazone 0.001 | [11] 0.052

Reprinted from the entries so far (2 entries):
SIAH2 (UniProt O43255)
inactive: [2] 0.008 | [3] 0.003 | [4] -0.042 | vemurafenib -0.129 | [5] -0.017 | [6] -0.229 | barasertib -0.054 | [7] 0.011 | volasertib -0.097 | [8] 0.01 | [10] -0.061 | rosiglitazone 0.036

SHFL (UniProt Q9NUL5)
inactive: [1] 0.003 | [2] -0.02 | [3] 0.03 | Nexturastat A 0.151 | [5] 0.041 | [6] -0.015 | barasertib -0.045 | volasertib 0.045 | [8] -0.008 | epoxomicin -0.127 | [9] 0.192 | rosiglitazone 0.015 | [12] 0.242

(cont.)

SERPINB5 (UniProt P36952)
inactive: [1] -0.146 | [2] 0.387 | vemurafenib 0.357 | [6] 0.108 | barasertib 0.639 | [7] 1.46 | [10] 0.024 | rosiglitazone 0.261 | [11] 1.42

SIK3 (UniProt H0Y4E8)
inactive: [1] 0.017 | [2] 0.18 | [3] -0.062 | [4] -0.066 | vemurafenib -0.08 | [5] -0.076 | [6] -0.026 | givinostat 0.098 | [7] 0.032 | volasertib -0.109 | [8] -0.02 | [9] -0.065 | [10] -0.111 | [11] -0.019 | [12] -0.071

SIAE (UniProt Q9HAT2)
inactive: [1] 0.05 | [2] 0.014 | [3] -0.109 | [4] 0 | Nexturastat A 0.105 | vemurafenib -0.104 | [5] -0.236 | givinostat -0.028 | barasertib -0.021 | volasertib -0.022 | [8] -0.132 | epoxomicin -0.072 | [13] 0.003 | [9] 0.059 | [10] -0.097 | rosiglitazone 0.127 | [11] 0.023 | [12] -0.205

SELENOP (UniProt P49908)
inactive: [1] -0.018 | [4] 0.032 | [6] -0.144 | givinostat 0.026 | barasertib 0.1 | [13] 0.035 | rosiglitazone 0.097

SEPTIN10 isoform 2 (UniProt Q9P0V9)
inactive: [1] -0.028 | [3] 0.074 | Nexturastat A 0.019 | vemurafenib -0.032 | [5] 0.012 | [6] -0.039 | givinostat -0.074 | barasertib 0 | [7] -0.026 | volasertib 0.102 | [8] -0.078 | epoxomicin -0.065 | [13] 0.006 | [9] 0.043 | [10] -0.066 | rosiglitazone 0.003 | [11] -0.078 | [12] -0.018

SFR1 isoform 2 (UniProt Q86XK3)
inactive: [1] 0.031 | [2] 0.017 | Nexturastat A 0.175 | vemurafenib 0.252 | [6] -0.07 | barasertib -0.026 | epoxomicin 0.181 | [10] 0.074 | rosiglitazone -0.02

SERBP1 isoform 3 (UniProt Q8NC51)
inactive: [2] 0.039 | [3] -0.108 | Nexturastat A 0.171 | [5] -0.05 | [6] 0.023 | givinostat -0.224 | barasertib -0.023 | [7] 0.159 | volasertib -0.006 | [8] -0.007 | epoxomicin -0.089 | [13] -0.058 | [9] 0.076 | rosiglitazone -0.104 | [11] 0.137 | [12] 0.052

Source: the supplement of paper PMC10849652
